According to patent US20200131558A1, “PAPER-BASED ASSAY FOR ANTIMICROBIAL RESISTANCE” (Colorado State University Research Foundation, priority 2017, published 2020):

System: β-lactamase
Experiment: Nitrocefin concentration optimization on paper (color intensity change)

## O=C(Cc1cccs1)N[C@@H]1C(=O)N2C(C(=O)O)=C(/C=C/c3ccc([N+](=O)[O-])cc3[N+](=O)[O-])CS[C@H]12 [nitrocefin]
5 μL of 1 mM nitrocefin dried on paper, 1 U/mL β-lactamase for 30 min
  color intensity change: 71%
Nitrocefin in solution, 100 U/mL β-lactamase, 1 mM nitrocefin
  color intensity change: 64%
